Hit rate of the full screen: of about 53,000 sequences, about 3,700 (7%) were called active.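 Rule for the calls: active = gene knockdowns whose robust z-score for IL-1 alpha signal is at least 2 or at most -2, so actives lie on both sides; inactive = the rest.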 The list shows a part of the results.
Assay: Components of the Cytosolic LPS Sensing Pathway: Gene Identification via Genome-wide siRNA Screen;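 note: robust z of the log signal after scaling to non-targeting control siRNA wells of the plate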
Details: RAW264.7 macrophages, IL-1a HTRF, actives lie on both sides, screened at 100 nM (by protocol), cells primed 5 h with Pam3CSK4 first
Method in brief: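 RAW264.7; siRNA 100 nM final, RNAiMAX, 48h 37 degrees C; Pam3CSK4 5 h; LipidA + TransIT-TKO 24 h; IL-1a HTRF; CellTiter-Glo viability; robust z vs negative-control median.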

Sequence	z-score
CCGUCUUCGAUGAGGCAAUTT against Rac2	inactive: 0.154
GCCUGGAAUGCAGAAUCGATT against Vwa2	inactive: -0.0276
CCAAGUCCAUAGUUGAACUTT against Bnc1	inactive: 1.17
GGAGGAACCUACCUUUGACTT against Tbc1d17	inactive: 0.0756
GGAGCAUUCAAAUUACAUCTT against Ccni	active: 4.62
GCUAUGAGGCUUUGUUCUUTT against Ttc27	inactive: 0.305
GGAGACAGAUCCUCUCAAUTT against Map4k2	inactive: 0.302
GCCUAUCAGAAGCUGUUAATT against Eif2ak2	active: 3.59
GGAAGAAAAAGCCGGGAAGTT against Fbxo3	inactive: -0.0865
GCAGGUUCACGACACCAACTT against Sv2a	inactive: -1.35
GGACGGUUACAAUGUGUACTT against Fgf21	inactive: 0.505
GCAAAACUUCGGAUAGUCATT against Gak	inactive: 0.382
GCUGUAGAGAUCAAUAGAGTT against Abcd2	inactive: -0.45
GGAGCAAUUGAGAAAGAAGTT against Moap1	inactive: 0.508
CGAGUAGUGAUGCUGUUGATT against Dhx33	inactive: -1.65
GCUGGUGGAUCAGAUUGAGTT against Larp6	inactive: 0.0914
GGCGCAACUCCAGAUACACTT against Ccdc150	inactive: 2
GGUGCUAAAUUAUCCCUAUTT against Tspear	inactive: 0.969
GCCUUCACGUGUGAAGAAUTT against Dis3	inactive: -1.47
GGACAUUUUCUUUGGAAAATT against Ccnl1	inactive: 0.194
GCCAUGAUUAUUUACCGUGTT against Lrrk2	inactive: 0.363
CCUAUUAAGCUCAACAAGCTT against Olfm5	inactive: 0.212

Rewritten field by field: entries from further up
CCGUCUUCGAUGAGGCAAUTT against Rac2
  z-score: inactive: 0.154
GCUAUGAGGCUUUGUUCUUTT against Ttc27
  z-score: inactive: 0.305
GGACGGUUACAAUGUGUACTT against Fgf21
  z-score: inactive: 0.505
GCUGGUGGAUCAGAUUGAGTT against Larp6
  z-score: inactive: 0.0914

The results go on:

Sequence	z-score
CCAGUGCUAGCUUCUACGATT against Dusp3	inactive: -0.735
GGAGAUACGCCGGAGACUATT against Olfr645	inactive: 0.181
GGAGAGAAAGGAAAGACCGTT against Zdhhc20	inactive: 0.863
CCGGUUGAGUUCACAGAAUTT against Atad3aos	active: -2.44
GGACAUUGACACUUCCCUGTT against P2rx5	inactive: -1.85
GGAAGUAGAUUUGAAGUUGTT against Btbd35f1	inactive: 0.256
GGAACAUCUACAUUGUGGCTT against Tspan14	inactive: 0.402
CGAAGGACCAGGGAAUCUGTT against Tsg-5	inactive: -0.793
GGAGAGAAAAACCAACAGCTT against Foxa1	inactive: 0.182
GGGAGUCAACUCUAUUUAUTT against AW549877	inactive: 0.41
GCUUGAUAGACCAAAAGAUTT against Zfp654	inactive: 0.646
CCUUCCACACCUAUUCCAATT against Kcna2	inactive: 1.89
GGAGGUAUUGUACAUCAAUTT against Nol4	inactive: 1.18
CGCAUGACCUUCCAGAUGCTT against Myoz1	inactive: 0.49
CGGAGUUGGGAUUUACCAGTT against Pdia5	inactive: -0.594
GGCUUACGAGAAAAUAGAATT against Phf8	inactive: -0.348
GAGCGGGACUUUUGUCAUGTT against Dalrd3	inactive: -1.49
CCAGUGUUCCCUACUACGUTT against Tmem176b	inactive: 0.607
CCUGUUUACAAGGAAUUGATT against Itgb1	inactive: 0.265
GGACAGAACUGGAAAUUUUTT against Nudcd2	inactive: 0.541
GCUAGCAUGCAUCUCUACATT against Asb17	inactive: 1.78
GGAGCUCCUGUACGACUAUTT against Kmt5a	inactive: -1.66

Sequence	z-score
UGCCCAAGACUCAGAAGUCTT against Igf1	inactive: 0.0658
GCCAGGCUAUAUUUCAUCCTT against Asb15	inactive: 0.296
CCAGAGAUUCCCACACGUCTT against Havcr1	inactive: -1.37
GCGGAGAUCCUACAAUGUUTT against Gpatch2	inactive: 0.979
GGCAUGAAGCAGGAAGACATT against Ttc19	inactive: -1.05
GGAACAAAGAGGUGAUGUUTT against Olfr109	inactive: -0.949
CGUAAGAAAGACUCGUUUATT against Lrrc14b	inactive: 0.439
GGAUUGUUGGUCCUCAAGUTT against Topbp1	inactive: -0.603
CCUGGUGAAACGUGUAUGATT against Pate6	inactive: 1.76
GGAAGAGCUAAUCGAUAUCTT against Tbc1d20	inactive: -0.276
GCAUCUCUCUACCAUUGACTT against Frmd8	inactive: 0.538
GGAGCUUUCAGCUAAGACATT against Rassf4	inactive: 0.671
GGAUUUAUUUAUGUCUUCCTT against Slc17a1	inactive: 0.0643
GGUGGAGUCUGGAAUUUCATT against Drd3	inactive: 1.32
GCACUGAGCACAAGAAGAGTT against Gm5478	inactive: -1.66
CCUUGGUGGAAUCGUUCCUTT against Timd2	inactive: 0.0733
CCAGAAUGUCUGUAAGGCATT against Rassf5	inactive: -0.0166
GGAACAGCAGCAGAGACAATT against Ppargc1a	inactive: -1.89
GGAAAGAAGCGAAUUACACTT against Tyw5	inactive: -0.133
CCGAAUGAGCUUUACCUAUTT against Ctsj	inactive: 0.327
GCCUCAAUAAAUUGUCAGCTT against Slc25a17	inactive: -0.0131
GGUGUUUCAUAUGGUUACUTT against Psma3	inactive: -0.94

Sequence	z-score
GGAAACUGAGCUUAAGAUUTT against Cald1	inactive: 1.2
GGAGUGUUUCUACCAGCCCTT against Tmed5	inactive: 1.87
CCACGAGAGCCUAAAGCUUTT against Msh5	inactive: -1.43
GGUUGAUCGCCUUAGAAAUTT against Etnk2	inactive: -1.32
CGGACAACUUUUGAAGCUGTT against Spata5l1	inactive: -1.01
GCUUCCAUGCCCAUGGAUATT against Crybb2	inactive: -0.0547
CGAGCUUUGCUUAAAAUCGTT against Pmp2	inactive: -1.68
GGUAAAGACUGUGUCAUUUTT against Mfsd11	inactive: 0.0157
GCUUAUAGAUCAGAUAGGATT against Cd244a	inactive: 0.404
GGAGUGUGGCAUUCAUCCUTT against Olfr667	inactive: -0.186
GCUGACAACCGAUGACAAUTT against Gja8	inactive: -0.0179
CCCAUAUGUGGUUUGUAAUTT against Cryaa	inactive: 0.089
GGUGUUUUCUCCAGUUAAGTT against Hfe	inactive: -1.06
GCUACUGUACAUCUACUACTT against Mon1a	inactive: -0.433
CCUCAGGGAAACUAUGUGUTT against Arap3	inactive: -0.574
GGCCAUCAUAUCACCAUUUTT against Rcsd1	inactive: 1.6
CCAGUGCGUCACUCAGUAATT against Ssmem1	inactive: -1.11
GGGCAAGUUUUUUUUUCUUTT against Sf3a2	inactive: 0.586
GGCUGUGUUAAGACCUUAATT against Mgarp	inactive: -0.971
GCCGUUACUGAGCUGAAAUTT against Allc	inactive: -0.866
GGGAUUUUUUGAACUGAUATT against Nedd4	inactive: 0.192
GGGAAUGGAAGAAUAUUCUTT against Dppa2	inactive: 1.61

Sequence	z-score
GGAAAUAAUCCGCCCACGUTT against Mier1	inactive: 0.785
GGAAAAAGUCAGAGAAAAATT against Sstr2	inactive: 0.576
GGAAGGCACUCUACUAGGATT against Sugp2	inactive: 1.35
GGUCUAUGCCAGUUUUGCATT against Tmbim6	inactive: -0.811
GGGAAAAGAAUCAAAAGUATT against Ccdc83	inactive: 1.08
GGAUCAGCUGGACAUUCUUTT against Fam216a	inactive: -1.74
GGAUGUUGAAGGUUUUGAATT against Fmr1nb	inactive: -1.55
GGGCAUUGUUCACAAGGACTT against Stk11	inactive: 0.558
GGAGAUCCAUUAGUGAGACTT against Mdm2	inactive: -1.44
GGAAUGCUUUUGAGAUUCATT against Ric3	inactive: 0.454
GGAAAUGACCCAUACUGUUTT against Tia1	inactive: -1.86
GGGUGGUAGAUUUAUACUATT against Crygc	inactive: 0.0722
GGUAAAAAGUGCCAUUAGATT against Olfr1188	inactive: -0.214
GGAGGUGGAAUGAGGAAACTT against Cck	inactive: 1.16
CCAGGUCGAACUUCUGUGCTT against Slc39a8	inactive: -0.82
GGCUAUGCAAUACCAGGUCTT against Nadk	inactive: -1.35
GCCAGACAAAGGUACACUATT against Hmox2	inactive: -0.0791
CCAAUUGGUAUCAAGCAAUTT against Hsdl2	inactive: 0.138
GGAUCAAUUGACCACAAACTT against Magi3	inactive: 0.164

A few values from the results shown.
Entry of GGAGCAAUUGAGAAAGAAGTT against Moap1 under z-score: inactive: 0.508
Entry of GGAAAGAAGCGAAUUACACTT against Tyw5 under z-score: inactive: -0.133
Entry of GGAGUGUUUCUACCAGCCCTT against Tmed5 under z-score: inactive: 1.87
Entry of GCCAGGCUAUAUUUCAUCCTT against Asb15 under z-score: inactive: 0.296

— PubChem BioAssay AID1508600 (Functional Genomics Laboratory (NCATS/FGL), 2020)
